Assay results as given in article doi:10.1101/2021.02.07.430167 (bioRxiv, 2021).
No constants are given. Whether binding was seen depends on the method and setting. Binding seen in cells or lysates may run through a third protein. Some entries that bind do so weakly or less than the wild type. For part of these data: Sequences can lack the tags named with a protein. Each block holds one binder with its values, some of them ahead of it.

By UniProt entry, the sequences of proteins in these tests, tags left out. Where a name states a change or a piece, a line headed by the entry shows the natural chain unless it says otherwise. Residues count along the entry.
UniProt P08138, 29-427: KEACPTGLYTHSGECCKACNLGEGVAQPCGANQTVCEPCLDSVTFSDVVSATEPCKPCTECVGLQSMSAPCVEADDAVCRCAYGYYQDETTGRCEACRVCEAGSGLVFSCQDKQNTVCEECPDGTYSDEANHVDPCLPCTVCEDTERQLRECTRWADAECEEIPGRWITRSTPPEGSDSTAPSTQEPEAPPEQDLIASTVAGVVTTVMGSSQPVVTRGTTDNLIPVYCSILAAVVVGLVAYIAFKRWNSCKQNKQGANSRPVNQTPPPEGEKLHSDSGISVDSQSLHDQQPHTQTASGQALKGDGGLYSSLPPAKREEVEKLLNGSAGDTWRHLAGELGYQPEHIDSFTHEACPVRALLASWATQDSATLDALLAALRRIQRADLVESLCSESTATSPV
UniProt P08138, whole entry, looked up, stated change not applied: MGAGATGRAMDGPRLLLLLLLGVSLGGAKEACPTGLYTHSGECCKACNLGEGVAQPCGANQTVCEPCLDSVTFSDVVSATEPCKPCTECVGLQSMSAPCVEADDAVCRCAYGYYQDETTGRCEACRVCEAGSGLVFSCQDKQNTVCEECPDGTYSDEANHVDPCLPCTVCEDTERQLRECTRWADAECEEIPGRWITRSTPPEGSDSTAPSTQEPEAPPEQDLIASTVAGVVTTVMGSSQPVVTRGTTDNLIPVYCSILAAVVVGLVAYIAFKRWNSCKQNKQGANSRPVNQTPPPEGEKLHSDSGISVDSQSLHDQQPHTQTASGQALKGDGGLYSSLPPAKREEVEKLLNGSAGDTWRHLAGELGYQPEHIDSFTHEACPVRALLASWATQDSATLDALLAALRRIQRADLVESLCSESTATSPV

What was measured:
[1] = target: full-length HA-tagged human p75NTR (human) (UniProt P08138); assay: co-IP
[2] = target: full-length HA-tagged human p75NTR K349A (human) (UniProt P08138); assay: co-IP
[3] = target: full-length HA-tagged human p75NTR (human) (UniProt P08138); assay: proximity ligation

binding [1]: binds
binding [2]: no binding
B1: full-length Myc-tagged human TRADD (protein, UniProt Q15628 1-312)
chain: MAAGQNGHEEWVGSAYLFVESSLDKVVLSDAYAHPQQKVAVYRALQAALAESGGSPDVLQMLKIHRSDPQLIVQLRFCGRQPCGRFLRAYREGALRAALQRSLAAALAQHSVPLQLELRAGAERLDALLADEERCLSCILAQQPDRLRDEELAELEDALRNLKCGSGARGGDGEVASAPLQPPVPSLSEVKPPPPPPPAQTFLFQGQPVVNRPLSLKDQQTFARSVGLKWRKVGRSLQRGCRALRDPALDSLAYEYEREGLYEQAFQLLRRFVQAEGRRATLQRLVEALEENELTSLAEDLLGLTDPNGGLA

binding [3]: binds
B2: TRADD of mouse cerebellar granule neurons (protein, UniProt Q3U0V2 1-310)
chain: MAAGQNGHEEWVGSAYLFLESAVDKVILSEAYTDPKKKVAIYKALQTALSESGDSSDVLQILKIHCSDPQLIVQLRFCGRVLCGRFLQAYREGALRTALQRCMAPALAQEALRLQLELRAGAEQLDSWLTDEERCLNYILAQKPDRLRDEELAELEDELCKLTCDCTGQGGAIQVASAGSKFPVSSPTEEKPLPAACQTFLFHGQLVVNRPLTLQDQQTFARSVGLKWRRVGRSLQRNCRALRDPALDSLAYEYERDGLYEQAFQLLRRFMQAEGRRATLQRLVEALEENELTSLAEDLLGQAEPDGGLA
